# No constants are given. Whether binding was seen depends on the method and setting. In cells and extracts the contact can be indirect. These calls come from enrichment with a bait or labelling near it, and not all partners need be listed. For some assays here: Tags and fused reporters may be left off the sequences shown.
# By UniProt entry, the sequences of proteins in these tests, tags left out. Residues count along the entry.
# UniProt Q03164, residues 1-1395: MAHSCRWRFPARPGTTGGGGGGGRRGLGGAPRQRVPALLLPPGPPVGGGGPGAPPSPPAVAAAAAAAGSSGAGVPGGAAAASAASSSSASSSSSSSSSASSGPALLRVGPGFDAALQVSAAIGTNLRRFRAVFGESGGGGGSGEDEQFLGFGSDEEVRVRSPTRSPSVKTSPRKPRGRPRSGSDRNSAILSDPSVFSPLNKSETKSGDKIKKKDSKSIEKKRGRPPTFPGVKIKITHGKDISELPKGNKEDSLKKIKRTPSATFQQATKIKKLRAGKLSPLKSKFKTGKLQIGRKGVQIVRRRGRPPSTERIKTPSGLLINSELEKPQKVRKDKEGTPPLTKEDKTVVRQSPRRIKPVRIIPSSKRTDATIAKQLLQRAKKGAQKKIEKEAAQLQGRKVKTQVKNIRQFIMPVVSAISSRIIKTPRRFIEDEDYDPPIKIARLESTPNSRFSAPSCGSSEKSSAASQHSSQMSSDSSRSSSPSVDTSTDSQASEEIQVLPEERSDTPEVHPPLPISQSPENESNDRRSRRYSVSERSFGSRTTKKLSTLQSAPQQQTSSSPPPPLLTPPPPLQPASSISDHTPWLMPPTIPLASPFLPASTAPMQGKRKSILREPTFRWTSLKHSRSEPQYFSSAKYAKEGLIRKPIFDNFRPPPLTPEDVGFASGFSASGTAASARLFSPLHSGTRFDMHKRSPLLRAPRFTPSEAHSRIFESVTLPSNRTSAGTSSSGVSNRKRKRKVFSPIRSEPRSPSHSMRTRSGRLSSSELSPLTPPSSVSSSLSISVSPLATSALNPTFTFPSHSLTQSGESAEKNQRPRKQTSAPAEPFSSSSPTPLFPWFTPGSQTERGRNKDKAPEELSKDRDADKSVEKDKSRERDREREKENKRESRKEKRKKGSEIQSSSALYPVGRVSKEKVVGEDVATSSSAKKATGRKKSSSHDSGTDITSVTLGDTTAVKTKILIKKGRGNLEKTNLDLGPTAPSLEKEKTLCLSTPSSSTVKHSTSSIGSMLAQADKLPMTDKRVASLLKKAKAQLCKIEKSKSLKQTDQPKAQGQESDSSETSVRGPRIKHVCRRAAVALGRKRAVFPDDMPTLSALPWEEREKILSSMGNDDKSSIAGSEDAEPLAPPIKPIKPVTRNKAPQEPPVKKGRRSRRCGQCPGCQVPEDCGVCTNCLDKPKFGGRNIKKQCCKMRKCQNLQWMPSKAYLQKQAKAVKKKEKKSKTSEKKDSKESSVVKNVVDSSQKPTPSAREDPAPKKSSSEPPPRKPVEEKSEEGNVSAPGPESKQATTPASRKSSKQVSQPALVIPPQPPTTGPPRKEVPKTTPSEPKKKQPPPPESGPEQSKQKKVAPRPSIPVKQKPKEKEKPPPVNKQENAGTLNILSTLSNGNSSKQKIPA
# UniProt O00255: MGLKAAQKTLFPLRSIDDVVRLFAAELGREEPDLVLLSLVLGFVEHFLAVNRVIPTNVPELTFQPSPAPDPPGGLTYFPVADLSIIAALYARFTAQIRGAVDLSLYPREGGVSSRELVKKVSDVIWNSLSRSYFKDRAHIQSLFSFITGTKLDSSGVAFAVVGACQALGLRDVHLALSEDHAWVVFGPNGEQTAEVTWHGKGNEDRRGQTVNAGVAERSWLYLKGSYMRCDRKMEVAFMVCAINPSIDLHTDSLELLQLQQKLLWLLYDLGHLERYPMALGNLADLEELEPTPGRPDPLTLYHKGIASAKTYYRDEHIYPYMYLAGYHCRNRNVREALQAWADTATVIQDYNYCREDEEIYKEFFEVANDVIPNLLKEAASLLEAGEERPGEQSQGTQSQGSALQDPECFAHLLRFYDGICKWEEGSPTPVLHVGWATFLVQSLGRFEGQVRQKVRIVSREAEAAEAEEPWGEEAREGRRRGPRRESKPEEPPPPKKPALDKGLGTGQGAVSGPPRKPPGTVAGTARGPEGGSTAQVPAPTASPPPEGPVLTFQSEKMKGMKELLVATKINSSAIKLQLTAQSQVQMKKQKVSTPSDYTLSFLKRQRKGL
# Assays:
# [1] = target: BirA*/FLAG-tagged MLL (1–1395) fused to AF6 RA1 domain (37–136) (UniProt Q03164); assay: proximity labelling; BirA*-tagged MLL fusion co-expressed with GFP-tagged partner; anti-GFP immunoprecipitation (or IP of endogenous MEN1) probed with streptavidin-HRP
# [2] = target: BirA*/FLAG-tagged MLL (1–1395) fused to AF6 αN-RA1 domain (6–136) (UniProt Q03164); assay: as above
# [3] = target: BirA*/FLAG-tagged MLL (1–1395) fused to AF6 RA1 domain (37–136) (UniProt Q03164); assay: proximity labelling; BioID: BirA*/FLAG-tagged MLL baits in stable HeLa Flp-In T-REx cells, 24 h with tetracycline and 50 µM biotin; streptavidin purification, mass spectrometry, SAINT
# [4] = target: BirA*/FLAG-tagged MLLN (MLL residues 1–1395) (UniProt Q03164); assay: as above
# [5] = target: BirA*/FLAG-tagged MLL (1–1395) fused to AF6 αN-RA1 domain (6–136) (UniProt Q03164); assay: as above
# [6] = target: BirA*/FLAG-tagged MLL (1–1395) fused to AF6 RA1 domain (37–136) (UniProt Q03164); assay: proximity labelling; BirA*-tagged MLL fusion co-expressed with GFP-tagged partner; anti-GFP immunoprecipitation (or IP of endogenous MEN1) probed with streptavidin-HRP; remark: listed apart in the source
molecule,measurement,setting,value
MENIN (endogenous) (from UniProt O00255 1-610),binding,[1],binds
same,binding,[2],binds
same,binding,[3],binds
same,binding,[4],binds
same,binding,[5],binds
"GFP-tagged AF17/MLLT6, full length (protein, UniProt P55198 1-1093) MKEMVGGCCVCSDERGWAENPLVYCDGHACSVAVHQACYGIVQVPTGPWFCRKCESQERAARVRCELCPHKDGALKRTDNGGWAHVVCALYIPEVQFANVLTMEPIVLQYVPHDRFNKTCYICEEQGRESKAASGACMTCNRHGCRQAFHVTCAQMAGLLCEEEVLEVDNVKYCGYCKYHFSKMKTSRHSSGGGGGGAGGGGGSMGGGGSGFISGRRSRSASPSTQQEKHPTHHERGQKKSRKDKERLKQKHKKRPESPPSILTPPVVPTADKVSSSASSSSHHEASTQETSESSRESKGKKSSSHSLSHKGKKLSSGKGVSSFTSASSSSSSSSSSSGGPFQPAVSSLQSSPDFSAFPKLEQPEEDKYSKPTAPAPSAPPSPSAPEPPKADLFEQKVVFSGFGPIMRFSTTTSSSGRARAPSPGDYKSPHVTGSGASAGTHKRMPALSATPVPADETPETGLKEKKHKASKRSRHGPGRPKGSRNKEGTGGPAAPSLPSAQLAGFTATAASPFSGGSLVSSGLGGLSSRTFGPSGSLPSLSLESPLLGAGIYTSNKDPISHSGGMLRAVCSTPLSSSLLGPPGTSALPRLSRSPFTSTLPSSSASISTTQVFSLAGSTFSLPSTHIFGTPMGAVNPLLSQAESSHTEPDLEDCSFRCRGTSPQESLSSMSPISSLPALFDQTASAPCGGGQLDPAAPGTTNMEQLLEKQGDGEAGVNIVEMLKALHALQKENQRLQEQILSLTAKKERLQILNVQLSVPFPALPAALPAANGPVPGPYGLPPQAGSSDSLSTSKSPPGKSSLGLDNSLSTSSEDPHSGCPSRSSSSLSFHSTPPPLPLLQQSPATLPLALPGAPAPLPPQPQNGLGRAPGAAGLGAMPMAEGLLGGLAGSGGLPLNGLLGGLNGAAAPNPASLSQAGGAPTLQLPGCLNSLTEQQRHLLQQQEQQLQQLQQLLASPQLTPEHQTVVYQMIQQIQQKRELQRLQMAGGSQLPMASLLAGSSTPLLSAGTPGLLPTASAPPLLPAGALVAPSLGNNTSLMAAAAAAAAVAAAGGPPVLTAQTNPFLSLSGAEGSGGGPKGGTADKGASANQEKG",binding,[6],binds
"GFP-tagged AF10/MLLT10, full length (protein, UniProt P55197 1-1068) MVSSDRPVSLEDEVSHSMKEMIGGCCVCSDERGWAENPLVYCDGHGCSVAVHQACYGIVQVPTGPWFCRKCESQERAARVRCELCPHKDGALKRTDNGGWAHVVCALYIPEVQFANVSTMEPIVLQSVPHDRYNKTCYICDEQGRESKAATGACMTCNKHGCRQAFHVTCAQFAGLLCEEEGNGADNVQYCGYCKYHFSKLKKSKRGSNRSYDQSLSDSSSHSQDKHHEKEKKKYKEKDKHKQKHKKQPEPSPALVPSLTVTTEKTYTSTSNNSISGSLKRLEDTTARFTNANFQEVSAHTSSGKDVSETRGSEGKGKKSSAHSSGQRGRKPGGGRNPGTTVSAASPFPQGSFSGTPGSVKSSSGSSVQSPQDFLSFTDSDLRNDSYSHSQQSSATKDVHKGESGSQEGGVNSFSTLIGLPSTSAVTSQPKSFENSPGDLGNSSLPTAGYKRAQTSGIEEETVKEKKRKGNKQSKHGPGRPKGNKNQENVSHLSVSSASPTSSVASAAGSITSSSLQKSPTLLRNGSLQSLSVGSSPVGSEISMQYRHDGACPTTTFSELLNAIHNGIYNSNDVAVSFPNVVSGSGSSTPVSSSHLPQQSSGHLQQVGALSPSAVSSAAPAVATTQANTLSGSSLSQAPSHMYGNRSNSSMAALIAQSENNQTDQDLGDNSRNLVGRGSSPRGSLSPRSPVSSLQIRYDQPGNSSLENLPPVAASIEQLLERQWSEGQQFLLEQGTPSDILGMLKSLHQLQVENRRLEEQIKNLTAKKERLQLLNAQLSVPFPTITANPSPSHQIHTFSAQTAPTTDSLNSSKSPHIGNSFLPDNSLPVLNQDLTSSGQSTSSSSALSTPPPAGQSPAQQGSGVSGVQQVNGVTVGALASGMQPVTSTIPAVSAVGGIIGALPGNQLAINGIVGALNGVMQTPVTMSQNPTPLTHTTVPPNATHPMPATLTNSASGLGLLSDQQRQILIHQQQFQQLLNSQQLTPEQHQAFLYQLMQHHHQQHHQPELQQLQIPGPTQIPINNLLAGTQAPPLHTATTNPFLTIHGDNASQKVARLSDKTGPVAQEKS",binding,[6],binds
"GFP-tagged ELL, full length (protein, UniProt P55199 1-621) MAALKEDRSYGLSCGRVSDGSKVSVFHVKLTDSALRAFESYRARQDSVSLRPSIRFQGSQGHISIPQPDCPAEARTFSFYLSNIGRDNPQGSFDCIQQYVSSHGEVHLDCLGSIQDKITVCATDDSYQKARQSMAQAEEETRSRSAIVIKAGGRYLGKKVQFRKPAPGATDAVPSRKRATPINLASAIRKSGASAVSGGSGVSQRPFRDRVLHLLALRPYRKAELLLRLQKDGLTQADKDALDGLLQQVANMSAKDGTCTLQDCMYKDVQKDWPGYSEGDQQLLKRVLVRKLCQPQSTGSLLGDPAASSPPGERGRSASPPQKRLQPPDFIDPLANKKPRISHFTQRAQPAVNGKLGVPNGREALLPTPGPPASTDTLSSSTHLPPRLEPPRAHDPLADVSNDLGHSGRDCEHGEAAAPAPTVRLGLPLLTDCAQPSRPHGSPSRSKPKKKSKKHKDKERAAEDKPRAQLPDCAPATHATPGAPADTPGLNGTCSVSSVPTSTSETPDYLLKYAAISSSEQRQSYKNDFNAEYSEYRDLHARIERITRRFTQLDAQLRQLSQGSEEYETTRGQILQEYRKIKKTNTNYSQEKHRCEYLHSKLAHIKRLIAEYDQRQLQAWP",binding,[6],binds
